{
  "sequences": {"note": "By UniProt entry, the sequences of proteins in these tests, tags left out. Residues count along the entry.", "UniProt P03070, residues 1-350": "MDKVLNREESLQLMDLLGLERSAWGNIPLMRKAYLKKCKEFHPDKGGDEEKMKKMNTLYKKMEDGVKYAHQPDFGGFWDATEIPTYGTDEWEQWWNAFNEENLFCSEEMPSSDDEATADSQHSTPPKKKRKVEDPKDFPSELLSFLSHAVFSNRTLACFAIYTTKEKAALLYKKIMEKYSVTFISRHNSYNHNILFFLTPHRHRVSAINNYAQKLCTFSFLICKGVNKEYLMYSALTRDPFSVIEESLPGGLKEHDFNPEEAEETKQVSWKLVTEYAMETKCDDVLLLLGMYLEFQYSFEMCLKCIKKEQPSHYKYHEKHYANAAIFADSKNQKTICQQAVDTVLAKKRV"},
  "source": "paper PMC3475652",
  "target": "SV40 large T antigen residues 1 to 350 (T8 fragment), N-terminal HA and FLAG tags (SV40) (UniProt P03070)",
  "experiment": "affinity purification with mass spectrometry; affinity purification of LT constructs with iTRAQ stable isotope labeling; enrichment relative to the negative control",
  "note": "No constants are given. Whether binding was seen depends on the method and setting. In cells and extracts the contact can be indirect. These calls come from enrichment with a bait or labelling near it, and not all partners need be listed.",
  "data": [
    {"binder": "p107 (RBL1) (protein, UniProt P28749 1-1068) MFEDKPHAEGAAVVAAAGEALQALCQELNLDEGSAAEALDDFTAIRGNYSLEGEVTHWLACSLYVACRKSIIPTVGKGIMEGNCVSLTRILRSAKLSLIQFFSKMKKWMDMSNLPQEFRERIERLERNFEVSTVIFKKYEPIFLDIFQNPYEEPPKLPRSRKQRRIPCSVKDLFNFCWTLFVYTKGNFRMIGDDLVNSYHLLLCCLDLIFANAIMCPNRQDLLNPSFKGLPSDFHTADFTASEEPPCIIAVLCELHDGLLVEAKGIKEHYFKPYISKLFDRKILKGECLLDLSSFTDNSKAVNKEYEEYVLTVGDFDERIFLGADAEEEIGTPRKFTRDTPLGKLTAQANVEYNLQQHFEKKRSFAPSTPLTGRRYLREKEAVITPVASATQSVSRLQSIVAGLKNAPSDQLINIFESCVRNPVENIMKILKGIGETFCQHYTQSTDEQPGSHIDFAVNRLKLAEILYYKILETVMVQETRRLHGMDMSVLLEQDIFHRSLMACCLEIVLFAYSSPRTFPWIIEVLNLQPFYFYKVIEVVIRSEEGLSRDMVKHLNSIEEQILESLAWSHDSALWEALQVSANKVPTCEEVIFPNNFETGNGGNVQGHLPLMPMSPLMHPRVKEVRTDSGSLRRDMQPLSPISVHERYSSPTAGSAKRRLFGEDPPKEMLMDKIITEGTKLKIAPSSSITAENVSILPGQTLLTMATAPVTGTTGHKVTIPLHGVANDAGEITLIPLSMNTNQESKVKSPVSLTAHSLIGASPKQTNLTKAQEVHSTGINRPKRTGSLALFYRKVYHLASVRLRDLCLKLDVSNELRRKIWTCFEFTLVHCPDLMKDRHLDQLLLCAFYIMAKVTKEERTFQEIMKSYRNQPQANSHVYRSVLLKSIPREVVAYNKNINDDFEMIDCDLEDATKTPDCSSGPVKEERGDLIKFYNTIYVGRVKSFALKYDLANQDHMMDAPPLSPFPHIKQQPGSPRRISQQHSIYISPHKNGSGLTPRSALLYKFNGSPSKSLKDINNMIRQGEQRTKKRVIAIDSDAESPAKRVCQENDDVLLKRLQDVVSERANH", "values": [
      {"measurement": "binding", "result": "binds"}
    ]}
  ]
}
